According to article PMC8505008:
Residue numbers refer to the chain shown, from its start. Results are given in words; binding and its absence hold for the method and conditions named. In cells and extracts the contact can be indirect. Some results given as binding are weak or reduced against the parent protein; the word gives no strength. Sequences can lack the tags named with a protein. Each block holds one molecule with its values, some of them ahead of it.

Sequences of proteins named here, by UniProt entry; tags and fusion partners are left off. A change or cut given only in a name is not applied to a line headed by its entry.
UniProt P04050: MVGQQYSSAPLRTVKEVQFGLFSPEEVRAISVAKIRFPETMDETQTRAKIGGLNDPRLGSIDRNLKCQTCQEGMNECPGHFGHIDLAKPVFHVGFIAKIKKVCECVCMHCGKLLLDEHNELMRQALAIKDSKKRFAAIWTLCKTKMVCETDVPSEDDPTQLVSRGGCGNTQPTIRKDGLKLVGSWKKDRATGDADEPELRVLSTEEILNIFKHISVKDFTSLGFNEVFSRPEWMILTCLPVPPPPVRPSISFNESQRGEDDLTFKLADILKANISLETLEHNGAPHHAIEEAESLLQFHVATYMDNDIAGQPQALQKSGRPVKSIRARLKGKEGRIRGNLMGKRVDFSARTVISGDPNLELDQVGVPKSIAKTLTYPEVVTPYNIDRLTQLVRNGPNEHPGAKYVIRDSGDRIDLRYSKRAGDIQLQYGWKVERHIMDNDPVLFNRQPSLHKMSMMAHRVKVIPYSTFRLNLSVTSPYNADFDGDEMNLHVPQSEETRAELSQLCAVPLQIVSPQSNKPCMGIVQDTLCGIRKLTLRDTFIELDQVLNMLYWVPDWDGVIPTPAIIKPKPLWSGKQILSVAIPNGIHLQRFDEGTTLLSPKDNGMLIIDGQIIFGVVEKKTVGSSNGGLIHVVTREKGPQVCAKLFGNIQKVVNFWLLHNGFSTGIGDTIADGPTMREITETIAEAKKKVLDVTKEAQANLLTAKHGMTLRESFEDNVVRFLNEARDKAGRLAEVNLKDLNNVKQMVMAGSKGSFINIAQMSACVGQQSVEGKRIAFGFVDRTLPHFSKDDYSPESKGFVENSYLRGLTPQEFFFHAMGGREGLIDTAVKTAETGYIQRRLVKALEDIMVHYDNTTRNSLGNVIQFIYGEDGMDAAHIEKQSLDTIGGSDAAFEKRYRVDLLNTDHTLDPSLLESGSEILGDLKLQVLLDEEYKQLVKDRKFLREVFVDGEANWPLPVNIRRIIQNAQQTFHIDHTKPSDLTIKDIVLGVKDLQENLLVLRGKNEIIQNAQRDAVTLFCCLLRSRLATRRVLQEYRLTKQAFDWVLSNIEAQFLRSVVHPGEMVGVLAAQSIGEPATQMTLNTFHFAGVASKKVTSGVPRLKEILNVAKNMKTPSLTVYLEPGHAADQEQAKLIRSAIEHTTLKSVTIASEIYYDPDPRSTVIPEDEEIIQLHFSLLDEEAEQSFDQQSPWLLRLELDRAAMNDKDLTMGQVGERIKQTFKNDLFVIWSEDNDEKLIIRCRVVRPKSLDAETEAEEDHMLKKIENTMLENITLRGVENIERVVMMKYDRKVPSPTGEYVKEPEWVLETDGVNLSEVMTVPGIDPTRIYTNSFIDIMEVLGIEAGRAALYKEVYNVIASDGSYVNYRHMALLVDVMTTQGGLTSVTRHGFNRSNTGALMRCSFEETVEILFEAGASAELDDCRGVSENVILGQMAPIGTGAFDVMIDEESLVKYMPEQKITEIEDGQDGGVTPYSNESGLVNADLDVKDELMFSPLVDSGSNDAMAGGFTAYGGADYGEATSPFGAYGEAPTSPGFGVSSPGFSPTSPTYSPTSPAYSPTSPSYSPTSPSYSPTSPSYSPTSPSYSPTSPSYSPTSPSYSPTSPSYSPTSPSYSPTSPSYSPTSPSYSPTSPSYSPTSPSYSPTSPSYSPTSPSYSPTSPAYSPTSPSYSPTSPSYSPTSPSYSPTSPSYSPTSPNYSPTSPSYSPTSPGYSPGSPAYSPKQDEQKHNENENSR
UniProt Q12306: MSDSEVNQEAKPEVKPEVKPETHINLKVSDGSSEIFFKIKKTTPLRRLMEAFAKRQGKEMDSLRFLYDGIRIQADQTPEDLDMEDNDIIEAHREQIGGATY

Experiments:
[1] = target: Rpb1, the large subunit of RNA polymerase II (budding yeast (endogenous in W303-derived strains)) (UniProt P04050); test: co-IP; Rpb1 (8WG16) IP (Protein G agarose, overnight) from non-denaturing yeast lysates (50 mM Tris-HCl pH 8, 150 mM NaCl, 0.1% NP40, PMSF, NEM); HA and Rpb1 immunoblots; also done in ulp1-mt (I615N) and ULP1 parental backgrounds, with dramatically less Tfg1-HA in ulp1-mt
[2] = target: T1, Tfg1-K60,61R-HA (budding yeast) (UniProt P41895); test: co-IP; HA IP (Protein G agarose, overnight) from non-denaturing yeast lysates (50 mM Tris-HCl pH 8, 150 mM NaCl, 0.1% NP40, PMSF, NEM); Rpb1 (8WG16) and HA immunoblots; also done in ulp1-mt (I615N) and ULP1 parental backgrounds, with significantly less Rpb1 in ulp1-mt
T1 sequence: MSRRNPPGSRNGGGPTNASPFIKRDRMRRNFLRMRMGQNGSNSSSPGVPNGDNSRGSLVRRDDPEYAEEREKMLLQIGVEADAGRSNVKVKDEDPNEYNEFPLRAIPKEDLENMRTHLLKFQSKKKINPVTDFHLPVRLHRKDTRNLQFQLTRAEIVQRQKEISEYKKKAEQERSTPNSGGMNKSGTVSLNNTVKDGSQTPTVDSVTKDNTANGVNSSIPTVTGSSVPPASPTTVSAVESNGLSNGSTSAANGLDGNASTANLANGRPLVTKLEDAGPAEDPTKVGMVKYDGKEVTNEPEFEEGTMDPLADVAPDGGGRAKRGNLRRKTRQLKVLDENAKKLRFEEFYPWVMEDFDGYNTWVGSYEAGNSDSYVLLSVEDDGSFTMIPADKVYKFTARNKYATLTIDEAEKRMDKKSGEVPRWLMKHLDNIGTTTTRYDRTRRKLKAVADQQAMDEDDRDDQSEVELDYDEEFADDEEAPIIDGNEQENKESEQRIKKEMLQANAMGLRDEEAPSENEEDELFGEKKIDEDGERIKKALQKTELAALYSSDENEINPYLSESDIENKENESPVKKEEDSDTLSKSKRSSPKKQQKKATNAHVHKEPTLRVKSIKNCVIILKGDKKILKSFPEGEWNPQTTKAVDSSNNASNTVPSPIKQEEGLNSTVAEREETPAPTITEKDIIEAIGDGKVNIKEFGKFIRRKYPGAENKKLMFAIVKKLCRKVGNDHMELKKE

[3] = target: T2, Tfg1-HA (large subunit of TFIIF with a 6xHA tag) (budding yeast) (UniProt P41895); test: as above
T2 sequence: T1 sequence with R60K, R61K, Q462N

Molecule: SUMO-Tfg1-HA (Tfg1-HA with a non-cleavable N-terminal fusion with the yeast SUMO peptide) (from UniProt Q12306 1-96; P41895 1-735)
binding [1]: binds

B1: Tfg1-HA (large subunit of TFIIF with a 6xHA tag) (protein, UniProt P41895 1-735)
chain: T1 sequence with R60K, R61K, Q462N
binding [1]: binds

Next, values leading:

binding [2]: binds
binding [3]: binds
Molecule: Rpb1, the large subunit of RNA polymerase II (from UniProt P04050 1-1733)

binding [1]: binds
B2: Tfg1-K60,61R-HA (protein, UniProt P41895 1-735)
chain: T1 sequence
